A short description of the series: Transport in the human intestinal Caco-2 cell monolayer model. Format: in vitro ADME. The conditions noted are these: Caco-2, values as stated in text. On the procedure: For confluence and differentiation, cells were seeded at a density of 1 × 10^5 cells/cm^2 into 12-well Transwell plates (insert diameter 12 mm, pore size 3.0 μm, membrane growth area 1.12 cm^2, Costar® #3402) and were allowed to grow for 21 days before the permeation experiment. On Day 21, the monolayers with TEER values >500 Ω·cm^2 were qualified for the transport experiment. The transport study was initiated by the careful removal of the culture medium from AP and BL side of the inserts. Caco-2 monolayers were rinsed twice with pre-warmed HBSS and were incubated by pre-warmed HBSS for 30 min at 37 °C. Stock solutions of test phenolic acid esters were prepared in DMSO and diluted to 50 µM with HBSS. […] Samples were collected from the inserts, then frozen, lyophilized, redissolved in MeOH, and injected into HPLC system for quantitative analysis.
The Papp values were calculated as the following equation:Papp = (dQ/dt) × (1/A) × (1/C0) (cm/s)(1) where dQ/dt is the rate of the appearance of the test compound on the receiver compartment (μmol/s), C0 is the initial test compound concentration on the donor compartment (μmol/mL), and A is the surface area of Caco-2 monolayer (cm^2).
On the technique in general: Passage across Caco-2 layers is used to estimate intestinal permeability.

Structures are written as SMILES.

For the compound `CC(C)NCC(O)COc1ccc(CC(N)=O)cc1` (stereo not shown) [atenolol, reference compound], the Papp A→B (in general, the apparent permeability from the apical to the basolateral side of a cell layer) at 90 min, 50 µM was 0.554 ×10⁻⁶ cm/s.

For the origin of these results see paper PMC6152638, “Anti-Inflammatory Phenolic Acid Esters from the Roots and Rhizomes of Notopterygium incisium and Their Permeability in the Human Caco-2 Monolayer Cell Model” (Molecules : A Journal of Synthetic Chemistry and Natural …, 2017).
